Measured values published in PubChem BioAssay AID651768 (National Center for Advancing Translational Sciences (NCATS), 2012).
The whole screen tested about 360,000 compounds, of which about 1,700 (0.47%) were called active. The inconclusive results got no clear call from the source; some entries with a clear call stand among them for comparison. Calls come from the whole dose curve; as a rule, active = well fitted inhibition curve with a large enough effect; inconclusive = small, poorly fitted or top-dose-only effect; inactive = no such curve, though single readings can be large or run the other way. Potencies beside an inconclusive call are fits to weak or partial responses and may not hold up.

Amino acid sequences for entries named in this document (tags omitted).
UniProt Q14191, whole entry, looked up: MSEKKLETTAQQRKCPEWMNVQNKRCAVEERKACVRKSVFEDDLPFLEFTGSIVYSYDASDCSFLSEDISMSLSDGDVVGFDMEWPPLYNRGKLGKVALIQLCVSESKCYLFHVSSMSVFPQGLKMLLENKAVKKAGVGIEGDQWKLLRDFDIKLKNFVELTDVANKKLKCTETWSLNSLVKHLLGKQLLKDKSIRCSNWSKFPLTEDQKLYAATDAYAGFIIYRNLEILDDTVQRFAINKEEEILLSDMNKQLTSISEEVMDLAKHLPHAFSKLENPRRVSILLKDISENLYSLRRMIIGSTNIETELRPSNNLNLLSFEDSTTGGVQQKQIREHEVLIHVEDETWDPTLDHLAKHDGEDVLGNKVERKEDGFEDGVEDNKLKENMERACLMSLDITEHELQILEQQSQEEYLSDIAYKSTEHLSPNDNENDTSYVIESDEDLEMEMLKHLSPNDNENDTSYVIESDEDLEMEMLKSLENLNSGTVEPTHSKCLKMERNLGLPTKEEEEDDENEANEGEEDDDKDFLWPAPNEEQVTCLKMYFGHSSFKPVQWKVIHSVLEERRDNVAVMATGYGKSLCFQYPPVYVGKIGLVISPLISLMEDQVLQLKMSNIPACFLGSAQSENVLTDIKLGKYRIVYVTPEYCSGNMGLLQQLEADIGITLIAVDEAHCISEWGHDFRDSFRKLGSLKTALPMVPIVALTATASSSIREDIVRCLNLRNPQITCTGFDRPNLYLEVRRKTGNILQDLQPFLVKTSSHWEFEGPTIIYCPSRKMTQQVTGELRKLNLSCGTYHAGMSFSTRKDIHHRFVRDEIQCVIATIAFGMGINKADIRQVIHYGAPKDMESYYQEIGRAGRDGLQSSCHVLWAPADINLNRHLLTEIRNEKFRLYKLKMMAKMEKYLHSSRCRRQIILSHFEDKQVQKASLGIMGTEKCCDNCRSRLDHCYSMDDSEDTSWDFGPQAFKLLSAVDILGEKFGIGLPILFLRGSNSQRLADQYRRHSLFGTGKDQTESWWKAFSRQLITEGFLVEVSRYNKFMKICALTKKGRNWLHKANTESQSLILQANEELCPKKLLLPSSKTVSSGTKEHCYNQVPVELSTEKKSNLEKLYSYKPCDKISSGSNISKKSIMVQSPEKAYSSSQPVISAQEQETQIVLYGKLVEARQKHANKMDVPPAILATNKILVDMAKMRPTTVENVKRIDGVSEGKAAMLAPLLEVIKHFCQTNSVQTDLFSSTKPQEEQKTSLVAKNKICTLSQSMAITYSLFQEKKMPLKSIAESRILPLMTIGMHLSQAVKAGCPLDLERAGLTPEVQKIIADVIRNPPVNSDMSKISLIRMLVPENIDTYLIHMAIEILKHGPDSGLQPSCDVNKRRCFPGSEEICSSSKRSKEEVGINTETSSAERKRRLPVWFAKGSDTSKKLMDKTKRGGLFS

What follows are compounds tested against Bifunctional 3'-5' exonuclease/ATP-dependent helicase WRN (Homo sapiens) (UniProt Q14191) (assay: qHTS for Inhibitors of WRN Helicase). Conditions: WRN helicase unwinding, fluorescent forked duplex, kinetic; activity change, negative = inhibition: at 114 µM (top of the series) unless noted.
Summary of the method: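 WRN at 20 nM final preincubated with compound 15 min at room temperature; reaction started with 100 nM fluorophore/quencher forked duplex oligonucleotide and 2 mM ATP final. Unwinding followed kinetically by red fluorescence (ex 525, em 598 nm).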
% is set by controls: 0 for no effect and ±100 for the full control effect; potency is the fitted concentration of half-maximal effect.
Note: nearly all actives have a fitted effect of over 55% in size.

| Compound | Potency | activity change, negative = inhibition |
| --- | --- | --- |
| COCc1nnc(NC(=O)c2ccc(S(=O)(=O)N(C)Cc3ccccc3)cc2)o1 | inconclusive: 89.1 µM [inhibitor, single point] |  |
| COc1ccc(Cc2nnc(N/N=C/c3ccccc3O)[nH]c2=O)cc1OC | inconclusive: 44.7 µM [inhibitor, partial curve] |  |
| C#CCOCCOCCOCCNc1nc(N2CCN(C(=O)CCCCCCCCCCNC(=O)[C@H](CCCCN)n3cc(CCCC(=O)O)nn3)CC2)nc(N2CCN(C(=O)CCCCCCCCCCNC(=O)[C@H](CCCN=C(N)N)n3cc(C[C@@H](C)CC)nn3)CC2)n1 | inconclusive: 63.1 µM [inhibitor, single point] |  |
| COCCCN1C(=O)C2C(C(=O)Nc3cc(C)cc(C)c3)C3C=CC2(O3)C1C(=O)NC1CCCCC1 (centres undefined) | inconclusive: 89.1 µM [inhibitor, partial curve] |  |
| Cc1cc(Cl)n2c(nc3ccccc32)c1C#N | inconclusive: 39.8 µM [inhibitor, single point] |  |
| O=[N+]([O-])c1ccc(/C=N/N=C/c2ccc([N+](=O)[O-])o2)o1 | inactive |  |
| CCc1nnc(NC(=O)c2ccc(-c3ccc(Cl)cc3)o2)s1 | inconclusive: 50.1 µM [inhibitor, partial curve, poor fit] |  |
| COc1ccc(CCNC(=O)c2ccc(-c3cccc([N+](=O)[O-])c3)o2)cc1OC | inconclusive: 35.5 µM [inhibitor, single point] |  |
| O=[N+]([O-])c1cccc(SSc2cccc([N+](=O)[O-])c2)c1 |  | inconclusive: -73.2% [inhibitor] |
| Cc1cc(OC(C)C(=O)Nc2ccc(S(=O)(=O)Nc3onc(C)c3C)cc2)cc(C)c1Cl (centres undefined) | inconclusive: 89.1 µM [inhibitor, single point] |  |
| O=C(CSc1ccc2nnc(-c3ccccn3)n2n1)Nc1ccccc1 | inconclusive: 31.6 µM [inhibitor, full curve, poor fit] |  |
| COc1cccc(NC(=O)CNCc2ccccc2)c1 | inactive |  |
| Nc1nc(Nc2ccccc2)nc(NC2CCCCC2)c1[N+](=O)[O-] | active: 79.4 µM |  |
| O=C1CC(c2ccc(O)c(O)c2)Oc2cc(O)cc(O)c21 (centres undefined) | inconclusive: 56.2 µM [inhibitor, partial curve] |  |
| O=C(N/N=C/c1ccc2ccccc2c1)c1ccc(COc2ccc3c(c2)CCC3)o1 | inconclusive: 50.1 µM [inhibitor, partial curve] |  |
| CC(=O)Nc1ccc(S(=O)(=O)Nc2cc(-c3ccccc3)nn2C)cc1 | inactive |  |
| Cn1c(=O)c2ncn(CC(=O)NCCOCc3ccccc3Cl)c2n(C)c1=O | inconclusive: 39.8 µM [inhibitor, single point] |  |
| COc1cc(OC)c(NC(=O)CN(C)S(=O)(=O)c2ccc3[nH]c(=O)oc3c2)cc1Cl | inactive |  |
| CCN1C(=O)/C(=C/C=C2\N(CC)c3cc(S(=O)(=O)N(C)C)ccc3N2c2ccccc2)SC1=S | inconclusive: 2.82 µM [inhibitor, full curve, poor fit] |  |
| O=C(/C=C\c1ccccc1)Nc1ccc(NC(=O)c2ccco2)cc1 | inconclusive: 79.4 µM [inhibitor, single point] |  |
| CCOC(=O)C(=N/O)/C(C)=N/NC(=O)C(=O)Nc1cc(Cl)ccc1Cl | inactive |  |
| CC1(C)CCN2CCC(C)(C)c3c(O)ccc1c32 | inconclusive: 50.1 µM [inhibitor, partial curve] |  |

Entries of single compounds as entered above:
COCc1nnc(NC(=O)c2ccc(S(=O)(=O)N(C)Cc3ccccc3)cc2)o1 in the list: Potency: inconclusive: 89.1 µM [inhibitor, single point]
Cn1c(=O)c2ncn(CC(=O)NCCOCc3ccccc3Cl)c2n(C)c1=O in the list: Potency: inconclusive: 39.8 µM [inhibitor, single point]
O=C1CC(c2ccc(O)c(O)c2)Oc2cc(O)cc(O)c21 (centres undefined) in the list: Potency: inconclusive: 56.2 µM [inhibitor, partial curve]

Continuation.

| Compound | Potency | activity change, negative = inhibition |
| --- | --- | --- |
| O=S(=O)(c1cccc(-c2csc(-c3cccnc3)n2)c1)N1CCOCC1 | inconclusive: 89.1 µM [inhibitor, single point] |  |
| COc1cc(SC#N)ccc1N=Cc1c(C)[nH]n(-c2ccc(C)cc2C)c1=O | inconclusive: 35.5 µM [inhibitor, partial curve] |  |
| COc1ccccc1OCCCOc1cccc(/C=C2\SC(=O)NC2=O)c1 | inconclusive: 79.4 µM [inhibitor, single point] |  |
| Cc1ccc(-c2nn3c(C)nnc3s2)cc1NC(=O)c1ccc(-c2ccc(Cl)cc2Cl)o1 | inconclusive: 8.91 µM [inhibitor, partial curve, poor fit] |  |
| CC1CCN(c2ccc(NC(=O)c3ccc([N+](=O)[O-])o3)cc2)CC1 | inactive |  |
| NS(=O)(=O)c1ccc(N/N=C/c2cn(-c3ccccc3)nc2-c2cccs2)cc1 | inconclusive: 35.5 µM [inhibitor, single point] |  |
| O=C(N/N=C/c1cc(Br)c(Br)o1)c1cccnc1 | inconclusive: 63.1 µM [inhibitor, partial curve, poor fit] |  |
| O=C1c2cccc3cc([N+](=O)[O-])cc(c23)C(=O)N1/N=C/c1ccc(O)cc1O | inconclusive: 100 µM [inhibitor, partial curve] |  |
| CC1CCN(C(=O)CSc2nnc3c(n2)[nH]c2ccccc23)CC1 | inconclusive: 31.6 µM [inhibitor, single point] |  |
| COc1ccc(NC(=S)NC(=NS(=O)(=O)c2ccc(Cl)cc2)c2ccccc2)cc1 | inactive |  |
| CS/C(Nc1cc(Cl)ccc1Cl)=C(/C#N)C(=O)c1ccco1 | inconclusive: 31.6 µM [inhibitor, partial curve] |  |
| CCc1nn(CC(=O)N2CCN(C)CC2)c(=O)c2cccn12 | inactive |  |
| CCC(C)c1ccc(S(=O)(=O)N2CCN(CC(O)COCC3CCCO3)CC2)cc1 (centres undefined) | inconclusive: 56.2 µM [inhibitor, partial curve] |  |
| Oc1ccc(NC(=S)N=Nc2c(O)[nH]c3ccccc23)cc1 | inconclusive: 20 µM [inhibitor, single point] |  |
| CC1CCCN(S(=O)(=O)c2ccc(C(=O)Nc3nnc(-c4ccncc4)o3)cc2)C1 (centres undefined) | inconclusive: 28.2 µM [inhibitor, single point] |  |
| Cc1ccccc1NC(=O)CN1C(=O)S/C(=C\c2ccc(-c3cc(C(=O)O)ccc3C)o2)C1=O | inconclusive: 31.6 µM [inhibitor, single point] |  |
| C=C1C(=O)C23C(O)C1CCC2C12CCCC(C)(COC(C)=O)C1C(O)C3(O)OC2 (centres undefined) | active: 17.8 µM |  |
| CCOC(=O)CNCCC(=O)c1ccc(Br)cc1 | inconclusive: 20 µM [inhibitor, full curve] |  |
| Cc1ccc(S(=O)(=O)CCC(=O)c2cccc([N+](=O)[O-])c2)cc1 | active: 14.1 µM |  |
| O=C(C=C1SCCS1)/C=C/c1ccco1 | inconclusive: 16.8 µM [inhibitor, partial curve] |  |
| O=C(Nc1cccc(NC(=O)c2cccs2)c1)c1ccc(Br)o1 | inactive |  |
| O=c1cc(O)c2sc3nc(C(F)(F)F)c4c(c3c2[nH]1)CCCCC4 | inactive |  |

| Compound | Potency | activity change, negative = inhibition |
| --- | --- | --- |
| CN(C)C(=O)c1ccc2c(c1[N+](=O)[O-])C(=O)c1ccccc1C2=O | inconclusive: 100 µM [inhibitor, partial curve, poor fit] |  |
| CC(C)(c1ccccc1)c1ccc(OCCCN2CCNCC2)cc1 | inconclusive: 22.4 µM [inhibitor, single point] |  |
| COc1ccc(NC(=O)CSc2nnc(C)n2C2CC2)cc1S(=O)(=O)N1CCOCC1 | inactive |  |
| CCOC(=O)C1=C(C)N=c2s/c(=C/c3cccc([N+](=O)[O-])c3O)c(=O)n2C1c1cc(OC)c(OC)c(OC)c1 (centres undefined) | inconclusive: 10 µM [inhibitor, full curve] |  |
| COc1ccc(NC(=O)Cn2c(=O)n(CCC(=O)NCC3CCCO3)c(=O)c3cc(OC)c(OC)cc32)cc1 (centres undefined) | inconclusive: 12.6 µM [inhibitor, partial curve] |  |
| N=C1SC(c2ccccc2)C(=O)N1c1ncc(Cc2ccccc2Cl)s1 (centres undefined) | inconclusive: 56.2 µM [inhibitor, partial curve] |  |
| CCOC(=O)c1cc2c(=Cc3ccc(N(C)C)cc3)c3ccccc3n2[n+]1C | active: 15.8 µM |  |
| CCC(=O)OCOc1ccc(/C=C2/CCC(CN(C)C)C2=O)cc1 (centres undefined) | active: 11.2 µM |  |
| Cc1ccccc1OCC(=O)NCC(=O)N/N=C/c1ccc(Br)o1 | inactive |  |
| Cc1nc(NC(=O)c2ccccc2)sc1-c1csc(Nc2ccc(C(=O)O)cc2)n1 |  | inactive: -8.66% [at 11.6 µM] |
| Cc1ccc(C(NC(=O)c2ccccc2)C(Cl)Cl)cc1 (centres undefined) | inconclusive: 10 µM [inhibitor, partial curve] |  |
| COc1ccc(-c2cc(C(F)(F)F)nc(N3CCN(c4ccc(F)cc4)CC3)n2)cc1OC | inconclusive: 17.8 µM [inhibitor, full curve, poor fit] |  |
| COC(=O)c1scc(C)c1S(=O)(=O)Nc1ccc(C)cc1 | inactive |  |
| O=C(CSc1nc2cc(Cl)ccc2s1)c1cc2ccccc2o1 | inconclusive: 56.2 µM [inhibitor, partial curve] |  |
| C[C@@H]1O[C@@H](OC[C@@H]2O[C@H](Oc3c(-c4ccc(O)cc4)oc4cc(O)cc(O)c4c3=O)[C@@H](O)[C@H](O)[C@H]2O)[C@H](O)[C@H](O)[C@H]1O | inactive |  |
| O=C(c1cnn(C(=O)CN2CCCC2=O)c1)c1ccccc1O | inconclusive: 22.4 µM [inhibitor, single point] |  |
| COC(=O)c1cccc(-c2ccc(C(c3c(C)[nH][nH]c3=O)c3c(C)[nH][nH]c3=O)o2)c1 | inconclusive: 39.8 µM [inhibitor, single point] |  |
| O=C(O)/C=C/c1ccc(S(=O)(=O)Nc2ccc3[nH]c(=O)[nH]c3c2)cc1 | inconclusive: 50.1 µM [inhibitor, partial curve] |  |
| O=C(NCc1ccccc1)C(c1ccccc1)n1c(=O)c(-c2ccco2)nc2ccccc21 (centres undefined) | inactive |  |
| CCOC(=O)c1c(NC(=O)Cn2nc(C(F)F)cc2C(F)F)sc(C)c1C | inactive |  |
